# Reference: patent publication US5580860A, “Pharmaceutical composition containing 2-amino-6-chloropurine-9-β-D-2',3'-dideoxyribofuranoxside” (priority 1989, dated 1996)
# At least one structure is not confirmed: it was looked up by name or label, or the drawing left a doubt.
# Test: Lipophilicity test, partition coefficient by shake-flask method
# Type: physicochemical
compound,measurement,setting,value
"Cc1cn([C@H]2C[C@H](N=[N+]=[N-])[C@@H](CO)O2)c(=O)[nH]c1=O [AZT, azidothymidine]",lipophilicity (comparison in words),"from log P, n-octanol/buffer pH 7.4",higher compared with that of DDI or DDG
same,log P,"n-octanol / phosphate buffer pH 7.4, shake-flask, HPLC",0.12
